In patent US20080200369A1 (SANFORD BURNHAM MEDICAL RESEARCH INSTITUTE, published 2008):
These are yes or no findings as the source states them, for the method shown. Some binding calls cover weakened binding; strength is not graded here.

T1: trophinin (human) (UniProt Q12816)
T1 sequence (looked up): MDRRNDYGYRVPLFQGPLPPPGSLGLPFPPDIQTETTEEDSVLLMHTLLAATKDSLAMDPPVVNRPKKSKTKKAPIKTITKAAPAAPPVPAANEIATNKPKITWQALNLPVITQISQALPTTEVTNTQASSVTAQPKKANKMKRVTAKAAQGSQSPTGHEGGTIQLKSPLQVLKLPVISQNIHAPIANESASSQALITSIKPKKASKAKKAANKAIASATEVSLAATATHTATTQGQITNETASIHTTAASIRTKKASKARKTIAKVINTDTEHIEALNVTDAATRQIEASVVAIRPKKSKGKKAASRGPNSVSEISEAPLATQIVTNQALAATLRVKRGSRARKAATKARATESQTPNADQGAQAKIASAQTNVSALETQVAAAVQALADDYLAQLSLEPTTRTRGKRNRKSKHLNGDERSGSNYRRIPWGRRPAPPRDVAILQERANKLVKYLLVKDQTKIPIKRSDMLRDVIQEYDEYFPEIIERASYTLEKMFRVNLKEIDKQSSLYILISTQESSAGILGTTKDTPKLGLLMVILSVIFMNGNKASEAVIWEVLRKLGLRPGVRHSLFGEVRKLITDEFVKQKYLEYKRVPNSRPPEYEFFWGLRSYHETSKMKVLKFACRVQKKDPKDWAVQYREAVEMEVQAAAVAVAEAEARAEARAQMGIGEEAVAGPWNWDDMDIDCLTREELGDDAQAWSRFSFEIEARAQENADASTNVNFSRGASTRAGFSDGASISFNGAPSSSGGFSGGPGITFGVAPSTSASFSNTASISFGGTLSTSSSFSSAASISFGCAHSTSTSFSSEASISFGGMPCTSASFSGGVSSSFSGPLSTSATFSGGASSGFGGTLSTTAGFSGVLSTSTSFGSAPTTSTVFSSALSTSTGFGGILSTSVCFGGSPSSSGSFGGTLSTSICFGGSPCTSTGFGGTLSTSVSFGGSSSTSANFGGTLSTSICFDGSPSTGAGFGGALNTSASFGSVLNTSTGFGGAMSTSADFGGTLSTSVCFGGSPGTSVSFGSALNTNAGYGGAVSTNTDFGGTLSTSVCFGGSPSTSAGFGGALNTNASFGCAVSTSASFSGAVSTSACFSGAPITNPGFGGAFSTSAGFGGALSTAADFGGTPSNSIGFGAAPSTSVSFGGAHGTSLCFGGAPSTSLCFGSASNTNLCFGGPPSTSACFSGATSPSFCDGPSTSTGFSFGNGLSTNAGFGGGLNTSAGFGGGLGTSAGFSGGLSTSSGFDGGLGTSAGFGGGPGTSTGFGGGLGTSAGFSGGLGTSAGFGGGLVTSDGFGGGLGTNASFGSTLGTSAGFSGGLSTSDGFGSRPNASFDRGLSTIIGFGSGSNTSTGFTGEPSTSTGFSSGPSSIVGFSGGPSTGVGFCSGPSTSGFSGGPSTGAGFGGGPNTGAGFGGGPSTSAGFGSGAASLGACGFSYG


How the values were obtained:
[1] = biological target: T1, trophinin (human); test: phage library screening on HT-H monolayer; phage binding on HT-H cells by colony counting (FIG. 1A)
[2] = biological target: T1, trophinin (human); test: phage overlaid on fixed human sperm; immunostaining with anti-phage (fd) antibody
[3] = biological target: T1, trophinin (human); test: phage overlaid on fixed, acid-treated human sperm (tail stains for trophinin); immunostaining with anti-phage (fd) antibody
[4] = biological target: T1, trophinin (human); test: phage binding assay by colony counting on fixed HT-H cell monolayers
[5] = biological target: T1, trophinin (human); test: phage bound to HT-H monolayer, lysis, immunoprecipitation with rabbit anti-M13 antibody, Western blot with anti-trophinin antibody (FIG. 1D)

| Binder | binding [1] | further results |
| --- | --- | --- |
| SSLMLGGWRQ [SEQ ID NO 19] | binds |  |
| GWRQLTARVP [M13-based phage displaying … (SEQ ID NO:4) peptide] |  | binding [2]: binds; binding [3]: binds; binding [4]: binds; binding [5]: binds |
| SLSVGWRQSG [SEQ ID NO 20] | binds |  |
| LSLRGYRQAR [SEQ ID NO 21] | binds |  |
| VLWRGVAGRG [SEQ ID NO 22] | binds |  |
| GWRQLTARVP [SEQ ID NO 23] | binds |  |
| TWRYLRSPQG [SEQ ID NO 24] | binds |  |
| SKGWKHWTPR [SEQ ID NO 25] | binds |  |
